Record: PubChem BioAssay AID1259254 (NCATS, 2017)
Assay: 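Gene knock-downs that lead to re-replication, shown by excess G2 DNA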 (primary screen). Cell system: human HCT116 colorectal cancer cells. Reagents: single siRNA against human genes. Duration: 3 days. Measured: 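Imaged Hoechst DNA stain sorts each cell into a cycle phase by DNA amount; per plate, G2 fraction set to 0% for non-targeting and 100% for GMNN siRNA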. Scale: G2 robust z-score and G2 cells, % of GMNN control: higher = more G2 cells, more excess DNA replication. Call rule: 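An siRNA counts as active if its G2 robust z-score lies at least 5 MADs above the screen median; here such calls match roughly 38% of GMNN control or more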.
This is an unselected part of about 59,000 reagents tested. About 1,550 of them (2.6%) count as active. 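G2 share is only a proxy for re-replication; each gene was hit by three separate siRNAs, and active genes were retested.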 Further read-outs or replicates are left out here. Not given: the amount of reagent.

{"gene knocked down": "C11orf58 (chromosome 11 open reading frame 58)", "PubChem SID": "SID160729583", "G2 robust z-score": -1.13, "G2 cells, % of GMNN control": -4.96, "activity call": "inactive"}
{"gene knocked down": "C11orf58 (chromosome 11 open reading frame 58)", "PubChem SID": "SID160729584", "G2 robust z-score": -0.68, "G2 cells, % of GMNN control": -1.82, "activity call": "inactive"}
{"gene knocked down": "C11orf58 (chromosome 11 open reading frame 58)", "PubChem SID": "SID160729585", "G2 robust z-score": -0.473, "G2 cells, % of GMNN control": -0.361, "activity call": "inactive"}
{"gene knocked down": "CBLN3 (cerebellin 3 precursor)", "PubChem SID": "SID160769029", "G2 robust z-score": 0.587, "G2 cells, % of GMNN control": 7.1, "activity call": "inactive"}
{"gene knocked down": "CBLN3 (cerebellin 3 precursor)", "PubChem SID": "SID160769030", "G2 robust z-score": 3.01, "G2 cells, % of GMNN control": 24.1, "activity call": "inactive"}
{"gene knocked down": "CBLN3 (cerebellin 3 precursor)", "PubChem SID": "SID160769031", "G2 robust z-score": 2.41, "G2 cells, % of GMNN control": 20, "activity call": "inactive"}
{"gene knocked down": "POLR1D (RNA polymerase I and III subunit D)", "PubChem SID": "SID160727913", "G2 robust z-score": 1.12, "G2 cells, % of GMNN control": 10.8, "activity call": "inactive"}
{"gene knocked down": "POLR1D (RNA polymerase I and III subunit D)", "PubChem SID": "SID160727914", "G2 robust z-score": 3.88, "G2 cells, % of GMNN control": 30.2, "activity call": "inactive"}
{"gene knocked down": "POLR1D (RNA polymerase I and III subunit D)", "PubChem SID": "SID160727915", "G2 robust z-score": -0.324, "G2 cells, % of GMNN control": 0.69, "activity call": "inactive"}
{"gene knocked down": "COX4I1 (cytochrome c oxidase subunit 4I1)", "PubChem SID": "SID160746850", "G2 robust z-score": 0.376, "G2 cells, % of GMNN control": 5.62, "activity call": "inactive"}
{"gene knocked down": "COX4I1 (cytochrome c oxidase subunit 4I1)", "PubChem SID": "SID160746860", "G2 robust z-score": 0.0177, "G2 cells, % of GMNN control": 3.09, "activity call": "inactive"}
{"gene knocked down": "COX4I1 (cytochrome c oxidase subunit 4I1)", "PubChem SID": "SID160746871", "G2 robust z-score": -0.545, "G2 cells, % of GMNN control": -0.866, "activity call": "inactive"}

Targets above whose gene name begins with P or p (3):
{"gene knocked down": "POLR1D (RNA polymerase I and III subunit D)", "PubChem SID": "SID160727913", "G2 robust z-score": 1.12, "G2 cells, % of GMNN control": 10.8, "activity call": "inactive"}
{"gene knocked down": "POLR1D (RNA polymerase I and III subunit D)", "PubChem SID": "SID160727914", "G2 robust z-score": 3.88, "G2 cells, % of GMNN control": 30.2, "activity call": "inactive"}
{"gene knocked down": "POLR1D (RNA polymerase I and III subunit D)", "PubChem SID": "SID160727915", "G2 robust z-score": -0.324, "G2 cells, % of GMNN control": 0.69, "activity call": "inactive"}

More entries follow.
{"gene knocked down": "GNLY (granulysin)", "PubChem SID": "SID160728779", "G2 robust z-score": 0.0947, "G2 cells, % of GMNN control": 3.63, "activity call": "inactive"}
{"gene knocked down": "GNLY (granulysin)", "PubChem SID": "SID160728780", "G2 robust z-score": -0.526, "G2 cells, % of GMNN control": -0.731, "activity call": "inactive"}
{"gene knocked down": "GNLY (granulysin)", "PubChem SID": "SID160732287", "G2 robust z-score": 3.32, "G2 cells, % of GMNN control": 26.3, "activity call": "inactive"}
{"gene knocked down": "PPP2R5D (protein phosphatase 2 regulatory subunit B'delta)", "PubChem SID": "SID160714819", "G2 robust z-score": 3.64, "G2 cells, % of GMNN control": 28.6, "activity call": "inactive"}
{"gene knocked down": "PPP2R5D (protein phosphatase 2 regulatory subunit B'delta)", "PubChem SID": "SID160714820", "G2 robust z-score": 2.02, "G2 cells, % of GMNN control": 17.2, "activity call": "inactive"}
{"gene knocked down": "PPP2R5D (protein phosphatase 2 regulatory subunit B'delta)", "PubChem SID": "SID160714821", "G2 robust z-score": 0.346, "G2 cells, % of GMNN control": 5.4, "activity call": "inactive"}
{"gene knocked down": "ZC3H18 (zinc finger CCCH-type containing 18)", "PubChem SID": "SID160756154", "G2 robust z-score": 0.511, "G2 cells, % of GMNN control": 6.56, "activity call": "inactive"}
{"gene knocked down": "ZC3H18 (zinc finger CCCH-type containing 18)", "PubChem SID": "SID160756155", "G2 robust z-score": -0.998, "G2 cells, % of GMNN control": -4.05, "activity call": "inactive"}
{"gene knocked down": "ZC3H18 (zinc finger CCCH-type containing 18)", "PubChem SID": "SID160756156", "G2 robust z-score": 1.91, "G2 cells, % of GMNN control": 16.4, "activity call": "inactive"}
{"gene knocked down": "OR4K1 (olfactory receptor family 4 subfamily K member 1)", "PubChem SID": "SID160748894", "G2 robust z-score": 0.478, "G2 cells, % of GMNN control": 6.33, "activity call": "inactive"}
{"gene knocked down": "OR4K1 (olfactory receptor family 4 subfamily K member 1)", "PubChem SID": "SID160748895", "G2 robust z-score": 0.039, "G2 cells, % of GMNN control": 3.24, "activity call": "inactive"}
{"gene knocked down": "OR4K1 (olfactory receptor family 4 subfamily K member 1)", "PubChem SID": "SID160748897", "G2 robust z-score": -0.644, "G2 cells, % of GMNN control": -1.56, "activity call": "inactive"}
